PubChem BioAssay AID1259425, University of Nebraska Medical Center, 2018

- Purpose: 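Seek colon cancer weak points whose silencing resembles KSR1 loss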 (primary screen)
- Cell system: HCT116 human colon cancer cells
- Knock-down reagent: siRNA pool against human genes, 50 nM siRNA
- Measurement: 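After 50 nM siRNA pool, branched-DNA assay measures six marker transcripts per well, minus blank, normalised to the geometric mean of two housekeeping transcripts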
- Scale: BNIP3L mRNA: higher = more BNIP3L transcript after knockdown; NDRG1 mRNA: higher = more NDRG1 transcript after knockdown; BNIP3 mRNA: higher = more BNIP3 transcript after knockdown; ALDOC mRNA: higher = more ALDOC transcript after knockdown; ACSL5 mRNA: higher = more ACSL5 transcript after knockdown
The whole screen tested about 14,000 reagents; shown is a random part of them. The record does not give: the time to read-out.

Target gene,PubChem SID,"BNIP3L mRNA, set 1","NDRG1 mRNA, set 1","BNIP3 mRNA, set 1","ALDOC mRNA, set 1","ACSL5 mRNA, set 1"
SOX14,SID363995193,0.697,0.711,1.07,0.0948,0.129
RGS9,SID363994896,0.105,0.184,0.297,0.0331,0.176
RYBP,SID363998158,0.0988,0.211,0.374,0.0267,0.175
STRBP,SID364001030,0.0924,0.0987,0.314,0.024,0.176
BCKDHA,SID363992006,0.114,0.121,0.222,0.0456,0.265
FAM13A,SID363992313,0.142,0.21,0.329,0.0575,0.33
LOXL1,SID363996474,0.208,0.582,0.223,0.0475,0.256
PAGE1,SID363994849,0.0851,0.496,0.2,0.0357,0.12
NUP210,SID364003164,0.181,0.246,0.284,0.0397,0.28
ASAH1,SID363995305,0.142,0.729,0.297,0.0195,0.32
AGPAT1,SID363997222,0.158,0.162,0.346,0.0138,0.237
PECR,SID364001074,0.126,0.059,0.212,0.015,0.0527
CA14,SID363998061,0.14,0.223,0.403,0.0492,0.0672
TMEM168,SID364002469,0.0845,0.316,0.201,0.0178,0.22
CTSB,SID363993121,0.0814,0.123,0.325,-0.00816,0.159
MRPS12,SID364002014,0.117,0.242,0.249,0.024,0.207
MOV10L1,SID364001315,0.172,0.279,0.292,0.0135,0.282
APOBEC2,SID363997557,0.119,0.338,0.147,0.0252,0.197
HMCN1,SID364003707,0.165,1.67,0.201,0.0899,0.392
SLC40A1,SID363998957,0.111,0.239,0.24,0.0198,0.228
SMOC1,SID364002363,0.109,0.24,0.25,0.00997,0.136
PCCB,SID363991855,0.0707,0.491,0.282,0.0227,0.222
PLPBP,SID363997897,0.127,0.754,0.373,0.0359,0.457
METTL1,SID363996281,0.18,2.03,0.727,0.0897,0.178
TNFSF4,SID363994442,0.0732,0.122,0.235,0.0175,0.114
HMGCLL1,SID364001346,0.0893,0.224,0.278,0.0277,0.202
TXNRD1,SID363994446,0.0714,0.115,0.276,0.026,0.109
STARD8,SID363999060,0.137,0.444,0.407,0.0193,0.163
NUP58,SID363998598,0.0946,0.656,0.307,0.0254,0.0835
IRAK2,SID363992826,0.0915,0.254,0.57,0.00805,0.28
NTSR2,SID363998254,0.162,0.328,0.392,0.0839,0.118
NRXN2,SID363999292,0.184,0.234,0.432,0.0499,0.0839
GUCA1A,SID363991740,0.091,0.102,0.241,0.0219,0.0787
STK40,SID364003738,0.127,0.443,0.209,0.0027,0.128
SOCS5,SID363998547,0.163,0.226,0.541,0.0288,0.276
DENR,SID363994752,0.13,0.642,0.514,0.0351,0.387
PPM1G,SID363993866,0.0922,0.262,0.258,0.00671,0.192
DCTD,SID363993134,0.0481,0.179,0.37,0.0155,0.172
PIK3C2G,SID363995541,0.138,0.093,0.353,0.0108,0.198
SMAP1,SID364002231,0.0519,0.133,0.245,0.0263,0.131
CACNA1S,SID363991406,0.159,0.112,0.429,0.0151,0.216
GAP43,SID363993255,0.129,0.21,0.409,0.00664,0.264
GPR12,SID363996206,0.0683,0.193,0.224,0.0285,0.148
FBXL20,SID364004248,0.0864,0.482,0.225,0.0395,0.247
CDC16,SID363994961,0.196,0.222,0.296,0.0159,0.178
PEPD,SID363991617,0.0651,0.411,0.262,0.0417,0.109
ORC3,SID363998269,0.0776,0.143,0.46,0.0121,0.175
ENTPD7,SID364001623,0.245,0.218,0.542,0.0624,0.339
GCGR,SID363991496,0.158,0.111,0.246,0.0371,0.0541
RNF186,SID364001369,0.106,0.0835,0.156,0.0168,0.0704

Entries above whose target name begins with D or d:
Target gene,PubChem SID,"BNIP3L mRNA, set 1","NDRG1 mRNA, set 1","BNIP3 mRNA, set 1","ALDOC mRNA, set 1","ACSL5 mRNA, set 1"
DENR,SID363994752,0.13,0.642,0.514,0.0351,0.387
DCTD,SID363993134,0.0481,0.179,0.37,0.0155,0.172
